Assay results: PubChem BioAssay AID192 (DTP/NCI, 2004)
The list does not hold the whole screen: its compounds were picked by chemical class. Other doses and runs of a compound may be missing. T/C: endpoint of the treated group in % of that of the vehicle group. Where survival is the endpoint, this PubChem deposit counts one and a half times the control or more as active, and values a quarter to a half above the control carry no call in these data; other NCI protocols may use other cut-offs. Schedule codes are those of the source, read here as Q, the interval in days (D) or hours (H), X, the number of doses. Some T/C values are marked as having no survivor count here; that says nothing about deaths at the dose. Some entries were tested several times; the values are given in rising order.

Tested on: BDF1 mice, B16 melanoma ip, median survival T/C
Experiment: NCI In Vivo Anticancer Drug Screen. Data for tumor model B16 Melanoma (intraperitoneal) in B6D2F1 (BDF1) mice
Settings: T/C endpoint: median survival time, higher T/C = longer survival
Procedure: The antitumor activity of compounds was measured in mice bearing transplantable tumors. Survival or tumor size were measured and the results are expressed as the measurement made in the treated group (T) divided by the measurement made in the vehicle treated control group (C). The tumor model used in this assay is B16 Melanoma (intraperitoneal) in B6D2F1 (BDF1) mice

[1] = dose: 0.09 mg/kg/injection, schedule: Q04DX003 (ip), vehicle: other
[2] = dose: 0.19 mg/kg/injection, schedule: Q04DX003 (ip), vehicle: other
[3] = dose: 0.38 mg/kg/injection, schedule: Q04DX003 (ip), vehicle: other
[4] = dose: 0.5 mg/kg/injection, schedule: Q01DX009 (ip), vehicle: saline + alcohol
[5] = dose: 1.0 mg/kg/injection, schedule: Q01DX009 (ip), vehicle: saline + alcohol
[6] = dose: 2.0 mg/kg/injection, schedule: Q01DX009 (ip), vehicle: saline + alcohol
[7] = dose: 0.63 mg/kg/injection, schedule: Q01DX009 (ip), vehicle: Klucel (hydroxypropylcellulose) (HPC)
[8] = dose: 0.75 mg/kg/injection, schedule: Q04DX003 (ip), vehicle: other
[9] = dose: 1.5 mg/kg/injection, schedule: Q04DX003 (ip), vehicle: other

## CC(=O)OC[C@]12C[C@H](OC(=O)CC(C)C)C(C)=C[C@H]1O[C@@H]1[C@H](O)[C@@H](O)[C@@]2(C)[C@@]12CO2
dose: 0.25 mg/kg/injection, schedule: Q01DX009 (ip), vehicle: saline, evaluated on day 50
  T/C: 136 % of control [survivor count not shown]
dose: 0.25 mg/kg/injection, schedule: Q01DX009 (ip), vehicle: saline, evaluated on day 60
  T/C: 113 % of control [survivor count not shown]
dose: 0.5 mg/kg/injection, schedule: Q01DX009 (ip), vehicle: saline, evaluated on day 50
  T/C: 141 % of control [survivor count not shown]
dose: 0.5 mg/kg/injection, schedule: Q01DX009 (ip), vehicle: saline, evaluated on day 60
  T/C: 137 [survivor count not shown] and 142 % of control [survivor count not shown]
dose: 1.0 mg/kg/injection, schedule: Q01DX009 (ip), vehicle: saline, evaluated on day 50
  T/C: 139 % of control [survivor count not shown]
dose: 1.0 mg/kg/injection, schedule: Q01DX009 (ip), vehicle: saline, evaluated on day 60
  T/C: 115 [survivor count not shown], 134 [survivor count not shown], 156 % of control [survivor count not shown]
dose: 2.0 mg/kg/injection, schedule: Q01DX009 (ip), vehicle: saline, evaluated on day 50
  T/C: 136 % of control [survivor count not shown]
dose: 2.0 mg/kg/injection, schedule: Q01DX009 (ip), vehicle: saline, evaluated on day 60
  T/C: 142 [survivor count not shown] and 152 % of control [survivor count not shown]
dose: 4.0 mg/kg/injection, schedule: Q01DX009 (ip), vehicle: saline
  T/C: 133 % of control [survivor count not shown]

## CC1=C[C@H]2O[C@@H]3C[C@H]4OC(=O)/C=C\C=C\C5OC(C/C(C)=C\C(=O)OCC2(CC1)[C@]4(C)[C@]31CO1)OC5C (stereo partly specified)
dose: 0.78 mg/kg/injection, schedule: Q01DX009 (ip), vehicle: saline with Tween-80
  T/C: 117 % of control [survivor count not shown]
dose: 1.56 mg/kg/injection, schedule: Q01DX009 (ip), vehicle: saline with Tween-80, evaluated on day 45
  T/C: 128 % of control [survivor count not shown]
dose: 1.56 mg/kg/injection, schedule: Q01DX009 (ip), vehicle: saline with Tween-80, evaluated on day 50
  T/C: 90 % of control [survivor count not shown]
dose: 3.13 mg/kg/injection, schedule: Q01DX009 (ip), vehicle: saline with Tween-80, evaluated on day 45
  T/C: 129 % of control [survivor count not shown]
dose: 3.13 mg/kg/injection, schedule: Q01DX009 (ip), vehicle: saline with Tween-80, evaluated on day 50
  T/C: 94 % of control [survivor count not shown]
dose: 6.25 mg/kg/injection, schedule: Q01DX009 (ip), vehicle: saline with Tween-80, evaluated on day 50
  T/C: 94 % of control [survivor count not shown]

## CC1=C[C@H]2O[C@@H]3C[C@H]4OC(=O)/C=C\C=C\C(C(C)O)OCC[C@@H](C)[C@H](O)C(=O)OC[C@@]2(CC1)[C@]4(C)[C@]31CO1 (stereo partly specified)
dose: 0.04 mg/kg/injection, schedule: Q01DX009 (ip), vehicle: saline with Tween-80
  T/C: 137 % of control [survivor count not shown]
[1]
  T/C: 116 % of control [survivor count not shown]
[2]
  T/C: 159 % of control [survivor count not shown]
[3]
  T/C: 159 % of control [survivor count not shown]
dose: 77.8 micrograms/kg/injection, schedule: Q04DX003 (ip), vehicle: saline + alcohol
  T/C: 105 % of control [survivor count not shown]
dose: 130.0 micrograms/kg/injection, schedule: Q04DX003 (ip), vehicle: saline + alcohol
  T/C: 116 % of control [survivor count not shown]
dose: 216.0 micrograms/kg/injection, schedule: Q04DX003 (ip), vehicle: saline + alcohol
  T/C: 113 % of control [survivor count not shown]
dose: 360.0 micrograms/kg/injection, schedule: Q04DX003 (ip), vehicle: saline + alcohol
  T/C: 121 % of control [survivor count not shown]

## C[C@@H]1CCOC(=O)/C=C/C=C\C(=O)O[C@@H]2C[C@H]3O[C@@H]4[C@@H]5OC5(C)CCC4(COC(=O)[C@H]1O)[C@]2(C)[C@@]31CO1 (stereo partly specified)
[4]
  T/C: 139 % of control [survivor count not shown]
[5]
  T/C: 159 % of control [survivor count not shown]
[6]
  T/C: 130 % of control [survivor count not shown]
dose: 4.0 mg/kg/injection, schedule: Q01DX009 (ip), vehicle: saline + alcohol
  T/C: 131 % of control [survivor count not shown]
dose: 8.0 mg/kg/injection, schedule: Q01DX009 (ip), vehicle: saline + alcohol
  T/C: 114 % of control [survivor count not shown]

## C=C(C)C(=O)OC[C@]12CCC(C)=C[C@H]1O[C@@H]1[C@H](O)[C@@H](O)[C@@]2(C)[C@@]12CO2
dose: 0.12 mg/kg/injection, schedule: Q01DX009 (ip), vehicle: saline + alcohol
  T/C: 120 % of control [survivor count not shown]
dose: 0.25 mg/kg/injection, schedule: Q01DX009 (ip), vehicle: saline + alcohol
  T/C: 132 % of control [survivor count not shown]
[4]
  T/C: 145 % of control [survivor count not shown]
[5]
  T/C: 143 % of control [survivor count not shown]

## CC1=C[C@H]2O[C@@H]3C[C@H]4OC(=O)/C=C\C=C\C(C(C)O)OCC(O)C(C)CC(=O)OC[C@@]2(C[C@@H]1O)[C@]4(C)[C@@]31CO1 (stereo partly specified)
[2]
  T/C: 156 % of control [survivor count not shown]
[3]
  T/C: 156 % of control [survivor count not shown]
[7]
  T/C: 183 % of control [survivor count not shown]
dose: 0.63 mg/kg/injection, schedule: Q01DX009 (ip), vehicle: saline + alcohol
  T/C: 176 % of control [survivor count not shown]
[8]
  T/C: 159 % of control [survivor count not shown]
dose: 1.25 mg/kg/injection, schedule: Q01DX009 (ip), vehicle: Klucel (hydroxypropylcellulose) (HPC)
  T/C: 190 % of control [survivor count not shown]
dose: 1.25 mg/kg/injection, schedule: Q01DX009 (ip), vehicle: saline + alcohol
  T/C: 175 % of control [survivor count not shown]
[9]
  T/C: 164 % of control [survivor count not shown]
dose: 2.5 mg/kg/injection, schedule: Q01DX009 (ip), vehicle: saline + alcohol
  T/C: 180 % of control [survivor count not shown]

## CC1=C[C@H]2O[C@@H]3[C@H](OC(=O)CCl)[C@@H](O)[C@](C)(C2(CO)CC1)[C@@]31CO1 (stereo partly specified)
dose: 0.75 mg/kg/injection, schedule: Q01DX009 (ip), vehicle: saline + alcohol
  T/C: 102 % of control [survivor count not shown]
dose: 1.5 mg/kg/injection, schedule: Q01DX009 (ip), vehicle: saline + alcohol
  T/C: 103 % of control [survivor count not shown]
dose: 3.0 mg/kg/injection, schedule: Q01DX009 (ip), vehicle: saline + alcohol
  T/C: 102 % of control [survivor count not shown]
dose: 6.0 mg/kg/injection, schedule: Q01DX009 (ip), vehicle: saline + alcohol
  T/C: 107 % of control [survivor count not shown]
dose: 12.0 mg/kg/injection, schedule: Q01DX009 (ip), vehicle: saline + alcohol
  T/C: 107 % of control [survivor count not shown]

## CC(=O)OC[C@]12CCC(C)=C[C@H]1O[C@H]1C(=O)[C@@H](OC(C)=O)[C@@]2(C)[C@]12CO2
[4]
  T/C: 126 % of control [survivor count not shown]
[6]
  T/C: 133 % of control [survivor count not shown]

## CC1=C[C@H]2O[C@@H]3C[C@H]4OC(=O)/C=C\C=C\[C@H]([C@@H](C)O)OC[C@H](O)[C@@]5(C)O[C@@H]5C(=O)OC[C@@]2(C[C@H]1O)[C@]4(C)C31CO1 (stereo partly specified)
[8]
  T/C: 178 % of control [survivor count not shown]
[9]
  T/C: 187 % of control [survivor count not shown]
dose: 3.0 mg/kg/injection, schedule: Q04DX003 (ip), vehicle: other
  T/C: 165 % of control [survivor count not shown]

## CC1=CC2OC3CC4OC(=O)/C=C/C=C/C(C(C)O)OCC(O)C(C)CC(=O)OCC2(CC1O)C4(C)C31CO1 (stereo unspecified)
[1]
  T/C: 137 % of control [survivor count not shown]
[2]
  T/C: 160 % of control [survivor count not shown]
[3]
  T/C: 169 % of control [survivor count not shown]
[7]
  T/C: 189 % of control [survivor count not shown]
[8]
  T/C: 156 % of control [survivor count not shown]
